# According to PubChem BioAssay AID1487 (National Center for Advancing Translational Sciences (NCATS), 2009):
# The list shows a part of the results. These are further read-outs of the screen, such as a control signal, another cell line or another target. No call is given for them. Most of these compounds were active or inconclusive in the main read-out, so they are no random draw. The note in brackets gives the kind of curve behind each potency; many fits are weak.
# Experiment: qHTS Assay for Modulators of Lamin A Splicing
# Details: HeLa LMNA splicing GFP/RFP minigene ratio, 48 h
# How it was run: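 Read-out is the ratio of GFP to DsRed2 object intensity, acquired by 488 nm laser-scanning cytometry on HeLa lamin A-EGFP minigene reporter cells. Compound incubation 48 hrs at 37 °C in Opti-MEM with 2% FBS; DMSO 0.5% final.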
# [1] = measured here: RFP viability control channel
# [2] = measured here: GFP splicing reporter channel
smiles,measurement,setting,value
CN1CCN(C(=O)C2CCN(c3ncc(C(F)(F)F)cc3Cl)CC2)CC1,AC50,[1],"35.5 µM [falling, single point]"
Cc1nn(CC(=O)Nc2ccc(OC(F)(F)F)cc2)c(=O)c2c(C)n(-c3ccc(Cl)cc3)nc12,AC50,[2],"0.282 µM [rising, full curve, poor fit]"
same,AC50,[1],"0.0398 µM [rising, full curve, poor fit]"
CN1CCN(c2ncc3nc(-c4ccccc4)c(=O)n(CCc4ccccc4)c3n2)CC1,AC50,[2],"20 µM [falling, partial curve, poor fit]"
same,AC50,[1],"22.4 µM [falling, partial curve]"
COc1ccc(CNC(C)C2COc3ccccc3O2)c(OC)c1 (configuration not stated),AC50,[2],"14.1 µM [rising, single point]"
same,AC50,[1],"12.6 µM [rising, single point]"
O=S(=O)(Nc1cccc(-c2cn3cccnc3n2)c1)c1ccc(Cl)cc1,AC50,[1],"17.8 µM [rising, single point]"
CCOc1ccc(-c2ccc(/C=C3/C(=N)N4C(C)=CSC4=NC3=O)o2)c([N+](=O)[O-])c1,AC50,[1],"15.8 µM [rising, single point]"
O=C(NCC1COc2ccccc2O1)C1C2C=CC3(CN(Cc4ccccc4Cl)C(=O)C13)O2 (configuration not stated),AC50,[1],"14.1 µM [rising, single point]"
O=C(c1cc2ccccc2oc1=O)N(Cc1ccc2c(c1)OCO2)Cc1ccco1,AC50,[2],"14.1 µM [rising, single point]"
same,AC50,[1],"12.6 µM [rising, single point]"
Cc1n[nH]c(C)c1CCc1nc2c3ccccc3nc(SCC(N)=O)n2n1,AC50,[1],"12.6 µM [rising, single point]"
CCOCCCNC(=O)c1ccc(-n2c(-c3ccccc3)cc3c2CCC(C)C3)cc1 (configuration not stated),AC50,[1],"35.5 µM [falling, single point]"
COc1ccc(-c2csc3ncnc(Nc4cccc(OC)c4)c23)cc1,AC50,[2],"0.708 µM [falling, full curve]"
O=C(NCC(c1cccs1)N1CCOCC1)c1ccccc1NS(=O)(=O)c1ccc(Cl)c([N+](=O)[O-])c1 (configuration not stated),AC50,[1],"11.2 µM [rising, partial curve]"
CCOC(=O)CSc1ccccn1,AC50,[2],"4.47 µM [rising, partial curve, poor fit]"
same,AC50,[1],"0.355 µM [rising, partial curve, poor fit]"
Cc1ccc(NC(=O)c2ccccc2O)cc1,AC50,[1],"28.2 µM [rising, single point]"
COc1ccc(Nc2oc(COc3ccc(OC)cc3)nc2C#N)cc1,AC50,[1],"31.6 µM [rising, single point]"
COC(=O)c1cc(Cl)c(NC(=O)c2ccc(C(C)(C)C)cc2)cc1OC,AC50,[1],"28.2 µM [rising, partial curve]"
CC(=O)N1CCCc2cc(S(=O)(=O)N3CCCC(C(=O)N4CCN(c5ccccc5)CC4)C3)ccc21 (configuration not stated),AC50,[2],"0.158 µM [rising, full curve, poor fit]"
COc1ccc(N2CCN(C(=O)/C=C/c3ccco3)CC2)cc1,AC50,[2],"4.47 µM [falling, partial curve, poor fit]"
Cc1ccc(-n2ncc3c(Nc4cccc(C(=O)O)c4)ncnc32)cc1,AC50,[2],"2 µM [falling, partial curve]"
same,AC50,[1],"35.5 µM [falling, partial curve, poor fit]"
CCc1ccccc1NS(=O)(=O)c1ccc2[nH]cc(C(=O)N(CC)Cc3ccccc3)c(=O)c2c1,AC50,[1],"11.2 µM [falling, partial curve, poor fit]"
O=C(Nc1nc2c(F)cc(F)cc2s1)c1ccccn1,AC50,[1],"12.6 µM [rising, partial curve]"
Cc1cc(C)nc(Sc2ncnc3sc4c(c23)CCC4)n1,AC50,[1],"17.8 µM [rising, partial curve]"
CCCCCCCn1c(=N)n(CC(O)c2ccco2)c2ccccc21 (configuration not stated),AC50,[2],"31.6 µM [falling, single point]"
CC1CC(C)CN(C(=O)CSc2ccsc2[N+](=O)[O-])C1 (configuration not stated),AC50,[2],"0.0158 µM [rising, full curve, poor fit]"
COc1[nH]c2ccc(F)cc2c1C(=O)OCC1CCN(CCNS(C)(=O)=O)CC1,AC50,[2],"5.62 µM [falling, partial curve, poor fit]"
same,AC50,[1],"6.31 µM [falling, single point]"
CCC(C(=O)N1CCN(c2cccc(Cl)c2)CC1)c1ccccc1 (configuration not stated),AC50,[1],"35.5 µM [rising, single point]"
CC(=O)OCCn1c2nc(=O)[nH]c(=O)c-2nc2cc(C)c(C)cc21,AC50,[2],"35.5 µM [falling, single point]"
same,AC50,[1],"1.78 µM [rising, single point]"
COc1ccc(S(=O)(=O)CCC(=O)N(C)c2ccc(OC)cc2OC)cc1,AC50,[1],"0.447 µM [rising, partial curve]"
Cc1ccsc1C=Nc1ccc(O)cc1,AC50,[2],"22.4 µM [falling, partial curve]"
same,AC50,[1],"12.6 µM [falling, partial curve, poor fit]"
CCCCOCCCNC(=O)c1ccc([N+](=O)[O-])c(C)c1,AC50,[2],"35.5 µM [rising, single point]"
same,AC50,[1],"35.5 µM [rising, single point]"
COc1ccccc1-c1nnc(NC(=O)c2ccc(S(=O)(=O)N(C)C)cc2)o1,AC50,[1],"28.2 µM [rising, partial curve, poor fit]"
CCOc1ccc(C2=CS/C(=C(\C#N)c3nnc4n3CCCCC4)N2CC)cc1,AC50,[1],"12.6 µM [rising, single point]"
CCc1ccc(OCCOCC(O)CNC(C)(C)C)cc1 (configuration not stated),AC50,[2],"35.5 µM [rising, single point]"
CN(C)S(=O)(=O)c1ccc(Cl)c(NC(=O)CSc2nc3c(cc2C#N)C(=O)CCC3)c1,AC50,[2],"6.31 µM [rising, partial curve]"
same,AC50,[1],"10 µM [rising, partial curve]"
Cc1ccc(C(=O)NC(=S)N2CCN(C(=O)OC(C)(C)C)CC2)cc1Br,AC50,[2],"3.55 µM [rising, full curve, poor fit]"
same,AC50,[1],"3.98 µM [rising, full curve, poor fit]"

# In a second layout: entries from further up
smiles | measurement | setting | value
COc1ccc(CNC(C)C2COc3ccccc3O2)c(OC)c1 (configuration not stated) | AC50 | [1] | 12.6 µM [rising, single point]
O=S(=O)(Nc1cccc(-c2cn3cccnc3n2)c1)c1ccc(Cl)cc1 | AC50 | [1] | 17.8 µM [rising, single point]
CCOc1ccc(-c2ccc(/C=C3/C(=N)N4C(C)=CSC4=NC3=O)o2)c([N+](=O)[O-])c1 | AC50 | [1] | 15.8 µM [rising, single point]
